The source of these data is article doi:10.1101/2020.02.02.931204.

By UniProt entry, the sequences of proteins in these tests, tags left out.
UniProt P33175, whole entry: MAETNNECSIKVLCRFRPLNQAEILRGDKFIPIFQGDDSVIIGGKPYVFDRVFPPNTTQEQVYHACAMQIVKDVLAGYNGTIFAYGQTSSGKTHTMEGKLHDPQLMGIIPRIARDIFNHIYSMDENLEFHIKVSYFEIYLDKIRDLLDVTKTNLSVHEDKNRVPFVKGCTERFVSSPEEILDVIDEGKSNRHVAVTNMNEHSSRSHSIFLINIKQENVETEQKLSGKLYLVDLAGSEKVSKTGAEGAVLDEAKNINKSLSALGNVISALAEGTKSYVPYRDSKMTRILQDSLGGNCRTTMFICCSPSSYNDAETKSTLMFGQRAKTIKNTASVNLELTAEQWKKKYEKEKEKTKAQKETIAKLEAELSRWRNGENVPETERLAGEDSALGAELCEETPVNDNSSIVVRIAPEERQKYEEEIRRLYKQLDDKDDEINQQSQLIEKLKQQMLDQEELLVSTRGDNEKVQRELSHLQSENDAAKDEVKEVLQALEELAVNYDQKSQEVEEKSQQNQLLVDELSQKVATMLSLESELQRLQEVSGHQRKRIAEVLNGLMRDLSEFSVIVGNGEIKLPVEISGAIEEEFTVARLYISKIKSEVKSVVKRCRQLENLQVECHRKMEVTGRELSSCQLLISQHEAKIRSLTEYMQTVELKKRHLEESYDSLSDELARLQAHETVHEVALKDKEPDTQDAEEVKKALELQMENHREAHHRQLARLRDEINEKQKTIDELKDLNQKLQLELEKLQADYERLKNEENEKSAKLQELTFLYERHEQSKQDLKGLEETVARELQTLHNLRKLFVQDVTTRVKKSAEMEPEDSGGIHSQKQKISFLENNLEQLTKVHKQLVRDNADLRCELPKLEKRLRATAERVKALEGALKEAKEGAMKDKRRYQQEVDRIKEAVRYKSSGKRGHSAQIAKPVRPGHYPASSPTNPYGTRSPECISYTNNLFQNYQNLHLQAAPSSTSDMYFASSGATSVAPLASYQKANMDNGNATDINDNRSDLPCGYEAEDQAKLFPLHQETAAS

For experiment [1], the target named is T1, HA-SFPQ (human) (UniProt P23246).
T1 sequence: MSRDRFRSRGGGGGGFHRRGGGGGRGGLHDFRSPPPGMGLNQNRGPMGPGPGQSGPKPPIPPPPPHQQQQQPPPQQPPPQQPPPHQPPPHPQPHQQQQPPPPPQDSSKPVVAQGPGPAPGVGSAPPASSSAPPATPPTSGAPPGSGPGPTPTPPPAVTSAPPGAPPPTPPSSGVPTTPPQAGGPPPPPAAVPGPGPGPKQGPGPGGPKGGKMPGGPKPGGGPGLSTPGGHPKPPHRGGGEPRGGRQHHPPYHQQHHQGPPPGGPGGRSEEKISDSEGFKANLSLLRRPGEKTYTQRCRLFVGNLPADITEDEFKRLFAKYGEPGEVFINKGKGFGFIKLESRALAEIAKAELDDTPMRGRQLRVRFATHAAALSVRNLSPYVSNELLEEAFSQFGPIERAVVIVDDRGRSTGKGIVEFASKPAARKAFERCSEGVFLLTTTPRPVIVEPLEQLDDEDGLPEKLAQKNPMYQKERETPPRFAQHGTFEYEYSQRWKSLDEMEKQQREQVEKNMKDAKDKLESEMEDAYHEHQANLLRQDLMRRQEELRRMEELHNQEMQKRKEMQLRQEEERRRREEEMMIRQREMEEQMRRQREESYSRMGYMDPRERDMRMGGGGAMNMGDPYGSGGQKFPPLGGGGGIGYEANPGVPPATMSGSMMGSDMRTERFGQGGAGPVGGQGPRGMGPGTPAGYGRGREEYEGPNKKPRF
In words: co-IP.

The target in experiment [2] is T1, HA-SFPQ (human). In words: co-IP. The source holds these as a separate data set.

Read-outs that look alike come from different tables or passages of the source. These are yes or no findings as the source states them, for the method shown. Binding seen in cells or lysates may run through a third protein. Some entries that bind do so weakly or less than the wild type. Tags and fused reporters may be left off the sequences shown.

With “FLAG-KIF5A WT (from UniProt P33175 1-1027)”, the binding entry in experiment [1] and in experiment [2] was “binds” each time.
